These are yes or no findings as the source states them, for the method shown. In cells and extracts the contact can be indirect. Some results given as binding are weak or reduced against the parent protein; the word gives no strength. Sequences can lack the tags named with a protein. Values belong to the molecule of their own block, whether it stands above or below them.
Legend:
[1] = molecular target: V-ATPase subunit V1H (ATP6V1H) (human (endogenous in MDAH-2774 and OVCAR8)) (UniProt Q9UI12); experiment: co-IP; lysate of OVCAR8 cells stably overexpressing SGK2 (or empty vector) precipitated with anti-ATP6V1H antibody in HNTG buffer, overnight at 4 C, protein A and G beads; blots for ATP6V1H, SGK2 and ATP6V0A3
[2] = molecular target: V-ATPase subunit V1H (ATP6V1H) (human (endogenous in MDAH-2774 and OVCAR8)) (UniProt Q9UI12); experiment: co-IP; 1 mg lysate of MDAH cells (untreated or treated with GSK650394 35 uM for 16 and 24 h) precipitated with anti-ATP6V1H antibody in HNTG buffer (20 mM HEPES, 150 mM NaCl, 10% glycerol, 0.1% Triton X-100), overnight at 4 C, protein A and G beads; blots for ATP6V1H, SGK2 and ATP6V0A3; all proteins endogenous

Chains of the proteins cited; added tags and fusions are not shown. Lines headed by an entry give the natural chain unless they say otherwise; changes in a name come on top.
UniProt Q9UI12: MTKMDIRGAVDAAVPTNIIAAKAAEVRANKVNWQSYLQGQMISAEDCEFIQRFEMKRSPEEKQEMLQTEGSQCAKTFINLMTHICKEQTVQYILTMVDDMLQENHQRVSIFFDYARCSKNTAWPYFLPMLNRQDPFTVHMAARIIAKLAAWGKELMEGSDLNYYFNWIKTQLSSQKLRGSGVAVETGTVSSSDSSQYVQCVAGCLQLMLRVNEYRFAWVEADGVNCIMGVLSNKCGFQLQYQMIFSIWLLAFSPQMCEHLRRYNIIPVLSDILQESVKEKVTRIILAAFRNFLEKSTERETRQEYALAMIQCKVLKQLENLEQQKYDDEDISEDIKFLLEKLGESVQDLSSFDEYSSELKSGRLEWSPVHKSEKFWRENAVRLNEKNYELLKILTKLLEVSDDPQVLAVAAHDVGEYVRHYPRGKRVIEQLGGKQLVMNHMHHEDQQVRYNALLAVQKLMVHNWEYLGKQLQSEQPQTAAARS
UniProt Q13488: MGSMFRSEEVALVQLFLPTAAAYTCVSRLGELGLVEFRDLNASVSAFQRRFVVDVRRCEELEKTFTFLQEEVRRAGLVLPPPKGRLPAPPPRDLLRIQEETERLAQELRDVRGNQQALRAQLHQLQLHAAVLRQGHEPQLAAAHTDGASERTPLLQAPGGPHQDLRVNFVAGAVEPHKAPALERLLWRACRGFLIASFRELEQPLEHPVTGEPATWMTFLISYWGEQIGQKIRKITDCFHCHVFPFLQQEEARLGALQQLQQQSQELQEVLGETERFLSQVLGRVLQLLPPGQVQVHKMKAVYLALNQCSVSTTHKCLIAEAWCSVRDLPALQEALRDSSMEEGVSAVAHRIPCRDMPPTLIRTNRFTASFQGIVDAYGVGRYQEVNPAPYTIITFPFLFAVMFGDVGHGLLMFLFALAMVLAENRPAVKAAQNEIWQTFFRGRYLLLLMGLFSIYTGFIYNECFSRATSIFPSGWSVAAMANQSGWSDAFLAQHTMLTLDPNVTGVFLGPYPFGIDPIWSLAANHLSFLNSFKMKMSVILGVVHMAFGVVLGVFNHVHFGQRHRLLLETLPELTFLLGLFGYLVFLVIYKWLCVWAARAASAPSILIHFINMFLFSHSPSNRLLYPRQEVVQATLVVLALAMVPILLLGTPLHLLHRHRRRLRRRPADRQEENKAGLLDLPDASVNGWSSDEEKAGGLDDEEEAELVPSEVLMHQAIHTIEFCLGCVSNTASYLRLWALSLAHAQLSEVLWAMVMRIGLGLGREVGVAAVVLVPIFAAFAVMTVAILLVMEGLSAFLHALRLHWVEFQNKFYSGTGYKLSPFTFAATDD

binding [1]: binds
binding [2]: binds
Molecule: V-ATPase subunit V0A3 (ATP6V0A3) (from UniProt Q13488 1-830)

binding [2]: binds
B1: Serum- and glucocorticoid-inducible kinase 2 (enzyme, UniProt Q9HBY8 1-367)
chain: MNSSPAGTPSPQPSRANGNINLGPSANPNAQPTDFDFLKVIGKGNYGKVLLAKRKSDGAFYAVKVLQKKSILKKKEQSHIMAERSVLLKNVRHPFLVGLRYSFQTPEKLYFVLDYVNGGELFFHLQRERRFLEPRARFYAAEVASAIGYLHSLNIIYRDLKPENILLDCQGHVVLTDFGLCKEGVEPEDTTSTFCGTPEYLAPEVLRKEPYDRAVDWWCLGAVLYEMLHGLPPFYSQDVSQMYENILHQPLQIPGGRTVAACDLLQSLLHKDQRQRLGSKADFLEIKNHVFFSPINWDDLYHKRLTPPFNPNVTGPADLKHFDPEFTQEAVSKSIGCTPDTVASSSGASSAFLGFSYAPEDDDILDC

binding [1]: binds
B2: SGK2 stably overexpressed in OVCAR8 cells (EGFP-SGK2) (enzyme, UniProt Q9HBY8 1-367)
chain: B1 chain

Reference: publication PMC7529585
